# Results as given in patent US20210154208A1, “Method to Identify Agents That Can Overcome Inhibition Caused By Drug-protein Binding of the Human Plasma Protein, Alpha-1-acid Glycoprotein” (The Johns Hopkins University, priority 2019, published 2021).
# Tested on: MOLM-14 cells
# Assay: Modified PIA, MTT proliferation with purified human AGP
# Type: cell-based
# Details: MOLM-14, purified AGP at physiologic concentrations
# Experimental: In the original plasma inhibitory assay (PIA), FLT3/ITD-expressing cells are co-incubated with plasma samples from patients receiving a FLT3 TKI, and Western blotting analysis of FLT3 auto-phosphorylation is used to measure the extent of FLT3 inhibitory activity present in their plasma.(9) This can then be compared to total plasma drug levels to determine the relative efficacy of a drug in vivo compared to its activity in vitro. […] To model these effects in the pre-clinical setting, we modified the PIA assay. Whereas the PIA was designed to assess in vivo drug activity with regards to a specific target (e.g.: inhibition of FLT3 auto-phosphorylation by TKI), the modified PIA is similarly cell-based, but measures the clinically relevant biological end-points of cytotoxicity and proliferation inhibition, instead of target inhibition. In the modified assay, FLT3/ITD cell lines are cultured in the presence of human plasma or purified human plasma proteins and treated with a range of concentrations of the drug of interest. […] Furthermore, like the original PIA, Western blot analysis can be performed on cells treated in this manner to study specific pathways of interest (FIG. 1B). […] The modified PIA utilizes the general endpoint of cytotoxicity. […]
compound,measurement,value
CO[C@@H]1[C@H](N(C)C(=O)c2ccccc2)C[C@H]2O[C@]1(C)n1c3ccccc3c3c4c(c5c6ccccc6n2c5c31)C(=O)NC4 [midostaurin],fold inhibition by AGP (fold-change in IC50),300 fold
